Results on 1 substance are retold here after doi:10.1101/2025.02.07.636424.

The chains behind the UniProt entries cited, without tags or fusion partners. Where a name states a change or a piece, a line headed by the entry shows the natural chain unless it says otherwise. A line that says so, or that is headed by a name, gives the form on record, which may keep a tag or linker.
N-terminally EYFP-tagged human PML-V isoform (P29590, form named): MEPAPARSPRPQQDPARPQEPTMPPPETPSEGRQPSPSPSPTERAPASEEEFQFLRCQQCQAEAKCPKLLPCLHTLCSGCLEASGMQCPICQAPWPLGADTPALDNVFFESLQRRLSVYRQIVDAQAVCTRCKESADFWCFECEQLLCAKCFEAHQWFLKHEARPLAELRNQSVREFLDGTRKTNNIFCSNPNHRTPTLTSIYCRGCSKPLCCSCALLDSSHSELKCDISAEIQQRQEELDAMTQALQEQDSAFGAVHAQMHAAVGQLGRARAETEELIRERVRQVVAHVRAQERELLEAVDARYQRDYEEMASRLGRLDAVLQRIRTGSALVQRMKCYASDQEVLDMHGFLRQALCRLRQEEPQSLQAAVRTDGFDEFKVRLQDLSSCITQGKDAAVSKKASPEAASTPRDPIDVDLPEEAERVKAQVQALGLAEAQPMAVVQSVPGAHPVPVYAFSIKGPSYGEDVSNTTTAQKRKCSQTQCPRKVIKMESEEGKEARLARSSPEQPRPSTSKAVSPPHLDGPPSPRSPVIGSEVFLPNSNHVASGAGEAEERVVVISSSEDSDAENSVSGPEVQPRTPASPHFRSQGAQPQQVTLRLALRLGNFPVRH

In this assay the target is N-terminally EYFP-tagged human PML-V isoform (human) (UniProt P29590). Kind of assay: co-IP.

These are yes or no findings as the source states them, for the method shown. Binding seen in cells or lysates may run through a third protein. Some results given as binding are weak or reduced against the parent protein; the word gives no strength.

As for “HAdV-C5 early protein E1B-55K (from UniProt P03243 1-496)”, the binding result is recorded as “binds”.
